Test results: publication PMC7512546
These are yes or no findings as the source states them, for the method shown. Binding seen in cells or lysates may run through a third protein. Some binding calls cover weakened binding; strength is not graded here.

Amino acid sequences for entries named in this document (tags omitted). A change or cut given only in a name is not applied to a line headed by its entry. Chains listed by the source or under a name are the forms on record and can include a tag or linker. Residues count along the entry.
UniProt P03418: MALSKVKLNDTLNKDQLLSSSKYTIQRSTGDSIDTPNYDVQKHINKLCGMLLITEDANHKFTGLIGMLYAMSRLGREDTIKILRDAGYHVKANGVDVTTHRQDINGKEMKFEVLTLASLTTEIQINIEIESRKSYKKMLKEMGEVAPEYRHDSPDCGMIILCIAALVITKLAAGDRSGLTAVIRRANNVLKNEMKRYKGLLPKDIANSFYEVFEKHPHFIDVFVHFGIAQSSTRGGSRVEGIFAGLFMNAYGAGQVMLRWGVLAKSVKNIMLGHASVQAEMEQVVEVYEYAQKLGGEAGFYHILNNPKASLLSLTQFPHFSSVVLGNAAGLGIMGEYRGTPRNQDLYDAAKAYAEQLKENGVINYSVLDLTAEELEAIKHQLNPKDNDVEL
UniProt P12579: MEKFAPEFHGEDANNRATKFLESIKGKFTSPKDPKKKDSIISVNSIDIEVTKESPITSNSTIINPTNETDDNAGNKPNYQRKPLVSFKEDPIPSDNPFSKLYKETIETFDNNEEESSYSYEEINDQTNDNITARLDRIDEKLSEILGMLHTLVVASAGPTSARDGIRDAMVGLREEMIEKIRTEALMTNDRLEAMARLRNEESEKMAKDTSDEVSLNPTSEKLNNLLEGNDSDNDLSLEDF
GST-P[161-241] (RSV phosphoprotein residues 161 to 241 fused to GST): residues 161-241 of P12579

How the values were obtained:
[1] = target: RSV nucleoprotein N, wild type (expressed in BSRT7/5 cells) (human respiratory syncytial virus) (UniProt P03418); test: co-sedimentation; soluble/insoluble fractionation of BSRT7/5 cells expressing P and/or N 24 h posttransfection; lysis in 50 mM Tris-HCl pH 7.4, 2 mM EDTA, 150 mM NaCl, 1% NP-40, sonicated, 13,000 rpm at 4°C for 30 min; total, soluble and pellet fractions by Western blotting
[2] = target: GST-P[161-241] (RSV phosphoprotein residues 161 to 241 fused to GST) (human respiratory syncytial virus) (UniProt P12579); test: pull-down; N or mCherry-N coexpressed with GST-P[161-241] in E. coli BL21 (DE3); GST purification on beads, P-N complexes on beads cut with thrombin 16 h at 20°C, then Superdex 200 in 20 mM Tris-HCl pH 8.5, 150 mM NaCl (preparative purification of N)

Substance	binding [1]	binding [2]
RSV phosphoprotein P (full-length, expressed in BSRT7/5 cells) (from UniProt P12579 1-241)	binds	–
recombinant RSV nucleoprotein N (pET-N, E. coli) (from UniProt P03418 1-391)	–	binds
recombinant mCherry-N (mCherry fused to the N terminus of RSV nucleoprotein N) (from UniProt P03418 1-391)	–	binds
